The list shows a part of the results.
Tests used:
Assay in all cases: log2 fold change, soluble protein after heating vs DMSO (PISA); higher = thermal stabilisation; K562 lysate, 10 uM; active = over 0.2 and 3.5 SD of the protein, either way, in both replicates (recomputed)
[1] = compound: C1=CC=C(C=C1)[C@H](COC2=CC3=C(C=C2)NC(=O)N3)NC(=O)C4=CC=CN(C4=O)CC5=CC(=C(C=C5)F)F
Outline: (§1)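 Following dounce homogenisation of K562 pellets in PBS pH 7.4 with 1 mM MgCl2, crude extract at 1 mg/mL protein was incubated for 30 min with 10 μM compound. Aliquots were then heated for 3 min over 48°C-58°C and pooled, NP-40 was added to 0.5% at 4°C, and soluble protein was recovered as the supernatant at 21,000xg for 90 min. Channel-sum-equalised TMTpro 16plex LC-MS/MS quantified this protein. Each value, from duplicates, is a log-two fold change in thermal stability relative to solvent controls.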

By UniProt entry, the sequences of proteins in these tests, tags left out. Where a name states a change or a piece, a line headed by the entry shows the natural chain unless it says otherwise.
UniProt P53609, whole entry, looked up: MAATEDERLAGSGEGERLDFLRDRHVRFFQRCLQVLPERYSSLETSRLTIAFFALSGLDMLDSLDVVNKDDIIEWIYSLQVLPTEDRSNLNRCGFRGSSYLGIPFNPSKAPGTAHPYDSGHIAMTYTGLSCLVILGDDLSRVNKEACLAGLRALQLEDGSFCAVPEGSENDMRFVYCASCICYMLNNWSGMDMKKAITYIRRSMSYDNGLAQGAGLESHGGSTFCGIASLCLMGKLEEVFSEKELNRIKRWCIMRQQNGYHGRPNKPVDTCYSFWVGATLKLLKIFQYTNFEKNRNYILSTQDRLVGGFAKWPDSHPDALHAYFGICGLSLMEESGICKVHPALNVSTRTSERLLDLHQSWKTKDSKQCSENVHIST
UniProt O00459, whole entry, looked up: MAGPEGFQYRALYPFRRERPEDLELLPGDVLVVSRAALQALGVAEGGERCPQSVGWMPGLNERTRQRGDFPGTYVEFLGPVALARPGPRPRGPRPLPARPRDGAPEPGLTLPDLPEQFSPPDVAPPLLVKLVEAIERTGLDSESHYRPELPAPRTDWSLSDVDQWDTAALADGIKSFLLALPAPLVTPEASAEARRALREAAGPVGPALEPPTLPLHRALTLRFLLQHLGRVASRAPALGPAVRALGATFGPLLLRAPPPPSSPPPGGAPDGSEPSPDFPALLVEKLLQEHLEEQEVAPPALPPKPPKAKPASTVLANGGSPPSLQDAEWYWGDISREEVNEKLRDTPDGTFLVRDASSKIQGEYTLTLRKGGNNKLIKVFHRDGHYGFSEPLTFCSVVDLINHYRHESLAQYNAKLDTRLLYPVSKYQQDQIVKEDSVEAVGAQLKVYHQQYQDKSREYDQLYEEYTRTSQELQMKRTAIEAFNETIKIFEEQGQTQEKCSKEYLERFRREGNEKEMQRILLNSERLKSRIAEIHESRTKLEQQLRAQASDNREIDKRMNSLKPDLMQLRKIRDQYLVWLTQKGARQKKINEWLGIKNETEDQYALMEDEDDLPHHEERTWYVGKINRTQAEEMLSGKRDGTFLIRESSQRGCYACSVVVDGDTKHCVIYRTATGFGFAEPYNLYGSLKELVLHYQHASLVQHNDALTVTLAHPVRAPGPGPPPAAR
UniProt P51178: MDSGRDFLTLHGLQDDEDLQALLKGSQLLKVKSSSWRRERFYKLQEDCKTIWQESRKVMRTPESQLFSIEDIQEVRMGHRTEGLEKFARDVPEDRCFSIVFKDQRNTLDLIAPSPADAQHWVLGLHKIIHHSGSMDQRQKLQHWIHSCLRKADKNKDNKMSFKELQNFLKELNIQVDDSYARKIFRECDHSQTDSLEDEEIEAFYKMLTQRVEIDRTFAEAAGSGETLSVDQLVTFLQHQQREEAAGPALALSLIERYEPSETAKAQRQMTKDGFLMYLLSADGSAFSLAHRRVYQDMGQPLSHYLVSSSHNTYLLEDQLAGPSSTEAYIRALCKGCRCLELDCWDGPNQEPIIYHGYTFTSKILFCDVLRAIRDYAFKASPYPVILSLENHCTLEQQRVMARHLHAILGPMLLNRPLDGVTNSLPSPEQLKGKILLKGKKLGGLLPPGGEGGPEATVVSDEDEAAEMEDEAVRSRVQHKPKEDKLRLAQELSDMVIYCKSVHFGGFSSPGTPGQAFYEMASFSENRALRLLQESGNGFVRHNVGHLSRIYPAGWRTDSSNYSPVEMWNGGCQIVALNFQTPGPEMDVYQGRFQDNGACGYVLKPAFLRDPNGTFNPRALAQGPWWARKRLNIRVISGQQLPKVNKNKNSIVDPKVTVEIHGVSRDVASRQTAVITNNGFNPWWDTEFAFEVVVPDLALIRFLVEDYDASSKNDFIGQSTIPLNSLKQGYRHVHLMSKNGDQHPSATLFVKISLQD
UniProt O60346: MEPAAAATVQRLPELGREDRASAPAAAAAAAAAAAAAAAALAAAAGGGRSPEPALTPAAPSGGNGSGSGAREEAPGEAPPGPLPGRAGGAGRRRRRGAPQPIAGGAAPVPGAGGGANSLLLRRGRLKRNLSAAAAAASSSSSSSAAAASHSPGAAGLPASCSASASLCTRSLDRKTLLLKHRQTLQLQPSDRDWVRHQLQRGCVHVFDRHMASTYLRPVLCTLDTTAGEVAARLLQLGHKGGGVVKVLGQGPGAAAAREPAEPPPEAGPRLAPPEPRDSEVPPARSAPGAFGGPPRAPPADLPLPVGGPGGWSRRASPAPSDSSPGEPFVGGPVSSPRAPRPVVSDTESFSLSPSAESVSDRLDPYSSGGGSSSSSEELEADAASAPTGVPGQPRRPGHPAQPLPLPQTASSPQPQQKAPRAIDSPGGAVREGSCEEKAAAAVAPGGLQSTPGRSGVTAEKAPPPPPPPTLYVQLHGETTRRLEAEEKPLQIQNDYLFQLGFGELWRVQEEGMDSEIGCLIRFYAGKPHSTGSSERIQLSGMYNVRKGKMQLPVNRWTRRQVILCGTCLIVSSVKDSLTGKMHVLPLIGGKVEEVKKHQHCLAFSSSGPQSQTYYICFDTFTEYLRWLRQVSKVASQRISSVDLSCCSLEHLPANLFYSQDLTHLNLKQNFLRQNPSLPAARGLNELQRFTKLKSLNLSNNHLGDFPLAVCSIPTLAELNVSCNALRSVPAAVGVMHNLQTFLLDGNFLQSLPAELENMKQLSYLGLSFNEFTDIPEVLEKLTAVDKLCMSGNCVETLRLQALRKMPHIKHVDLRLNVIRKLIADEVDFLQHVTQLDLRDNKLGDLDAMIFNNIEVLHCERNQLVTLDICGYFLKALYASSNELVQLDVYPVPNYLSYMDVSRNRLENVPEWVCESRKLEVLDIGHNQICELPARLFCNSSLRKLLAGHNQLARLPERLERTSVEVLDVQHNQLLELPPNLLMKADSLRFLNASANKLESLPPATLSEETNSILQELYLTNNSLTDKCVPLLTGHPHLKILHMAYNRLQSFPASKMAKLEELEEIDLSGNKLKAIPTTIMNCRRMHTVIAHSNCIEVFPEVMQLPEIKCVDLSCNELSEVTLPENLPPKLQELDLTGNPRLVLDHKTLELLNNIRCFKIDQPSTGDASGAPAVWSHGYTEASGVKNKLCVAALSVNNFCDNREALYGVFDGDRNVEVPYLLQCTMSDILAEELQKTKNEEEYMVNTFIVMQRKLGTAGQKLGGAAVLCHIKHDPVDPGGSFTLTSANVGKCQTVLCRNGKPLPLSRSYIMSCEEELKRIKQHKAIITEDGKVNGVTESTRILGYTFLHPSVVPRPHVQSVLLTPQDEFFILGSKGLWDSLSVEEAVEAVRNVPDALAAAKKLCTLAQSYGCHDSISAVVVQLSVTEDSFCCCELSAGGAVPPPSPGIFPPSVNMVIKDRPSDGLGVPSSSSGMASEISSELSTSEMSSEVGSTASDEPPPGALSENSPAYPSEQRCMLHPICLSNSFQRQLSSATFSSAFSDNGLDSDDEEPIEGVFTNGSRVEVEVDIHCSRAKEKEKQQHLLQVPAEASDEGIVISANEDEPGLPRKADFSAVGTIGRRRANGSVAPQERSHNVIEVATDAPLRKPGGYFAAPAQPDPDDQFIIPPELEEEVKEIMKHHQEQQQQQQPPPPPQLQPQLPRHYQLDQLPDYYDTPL
UniProt O43175: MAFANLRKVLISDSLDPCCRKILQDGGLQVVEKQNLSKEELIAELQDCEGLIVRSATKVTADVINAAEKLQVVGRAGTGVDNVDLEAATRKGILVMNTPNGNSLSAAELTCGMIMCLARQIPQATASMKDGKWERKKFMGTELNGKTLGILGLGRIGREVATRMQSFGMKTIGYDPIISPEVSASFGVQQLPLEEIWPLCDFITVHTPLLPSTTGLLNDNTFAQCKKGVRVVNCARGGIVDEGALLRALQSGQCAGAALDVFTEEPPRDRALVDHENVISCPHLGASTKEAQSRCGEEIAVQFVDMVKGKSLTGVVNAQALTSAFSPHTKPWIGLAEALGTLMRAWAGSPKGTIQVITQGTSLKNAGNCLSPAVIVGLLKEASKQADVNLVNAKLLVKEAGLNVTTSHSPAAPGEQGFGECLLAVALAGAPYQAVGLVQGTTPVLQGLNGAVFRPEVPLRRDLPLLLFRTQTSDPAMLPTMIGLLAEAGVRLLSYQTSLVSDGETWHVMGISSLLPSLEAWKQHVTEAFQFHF
UniProt O43164: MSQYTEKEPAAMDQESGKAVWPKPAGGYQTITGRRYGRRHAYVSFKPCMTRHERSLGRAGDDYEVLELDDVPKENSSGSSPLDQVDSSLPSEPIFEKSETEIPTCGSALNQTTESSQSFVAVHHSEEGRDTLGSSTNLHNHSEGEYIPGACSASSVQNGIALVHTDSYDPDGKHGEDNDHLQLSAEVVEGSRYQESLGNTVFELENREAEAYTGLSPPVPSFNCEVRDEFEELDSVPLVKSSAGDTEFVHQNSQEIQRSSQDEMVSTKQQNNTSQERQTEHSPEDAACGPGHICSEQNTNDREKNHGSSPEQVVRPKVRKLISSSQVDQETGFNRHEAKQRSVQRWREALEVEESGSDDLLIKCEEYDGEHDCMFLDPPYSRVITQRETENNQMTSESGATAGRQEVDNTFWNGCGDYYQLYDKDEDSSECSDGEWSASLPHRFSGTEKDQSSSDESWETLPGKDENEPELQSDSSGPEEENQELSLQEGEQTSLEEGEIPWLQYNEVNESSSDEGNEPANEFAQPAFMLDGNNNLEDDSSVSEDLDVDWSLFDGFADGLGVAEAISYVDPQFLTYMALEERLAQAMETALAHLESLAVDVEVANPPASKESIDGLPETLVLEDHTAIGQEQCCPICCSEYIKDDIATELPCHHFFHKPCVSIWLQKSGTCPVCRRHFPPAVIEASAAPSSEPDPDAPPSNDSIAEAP
UniProt Q03405, whole entry, looked up: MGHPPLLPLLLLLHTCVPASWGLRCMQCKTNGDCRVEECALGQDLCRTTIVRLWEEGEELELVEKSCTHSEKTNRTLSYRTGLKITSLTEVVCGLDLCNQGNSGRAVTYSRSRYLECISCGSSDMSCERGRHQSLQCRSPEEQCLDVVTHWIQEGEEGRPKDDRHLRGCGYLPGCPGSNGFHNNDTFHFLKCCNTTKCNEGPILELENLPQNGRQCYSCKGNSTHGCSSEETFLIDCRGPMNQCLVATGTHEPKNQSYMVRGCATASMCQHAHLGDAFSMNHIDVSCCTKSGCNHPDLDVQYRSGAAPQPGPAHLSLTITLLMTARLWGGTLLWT
UniProt Q9UPP1: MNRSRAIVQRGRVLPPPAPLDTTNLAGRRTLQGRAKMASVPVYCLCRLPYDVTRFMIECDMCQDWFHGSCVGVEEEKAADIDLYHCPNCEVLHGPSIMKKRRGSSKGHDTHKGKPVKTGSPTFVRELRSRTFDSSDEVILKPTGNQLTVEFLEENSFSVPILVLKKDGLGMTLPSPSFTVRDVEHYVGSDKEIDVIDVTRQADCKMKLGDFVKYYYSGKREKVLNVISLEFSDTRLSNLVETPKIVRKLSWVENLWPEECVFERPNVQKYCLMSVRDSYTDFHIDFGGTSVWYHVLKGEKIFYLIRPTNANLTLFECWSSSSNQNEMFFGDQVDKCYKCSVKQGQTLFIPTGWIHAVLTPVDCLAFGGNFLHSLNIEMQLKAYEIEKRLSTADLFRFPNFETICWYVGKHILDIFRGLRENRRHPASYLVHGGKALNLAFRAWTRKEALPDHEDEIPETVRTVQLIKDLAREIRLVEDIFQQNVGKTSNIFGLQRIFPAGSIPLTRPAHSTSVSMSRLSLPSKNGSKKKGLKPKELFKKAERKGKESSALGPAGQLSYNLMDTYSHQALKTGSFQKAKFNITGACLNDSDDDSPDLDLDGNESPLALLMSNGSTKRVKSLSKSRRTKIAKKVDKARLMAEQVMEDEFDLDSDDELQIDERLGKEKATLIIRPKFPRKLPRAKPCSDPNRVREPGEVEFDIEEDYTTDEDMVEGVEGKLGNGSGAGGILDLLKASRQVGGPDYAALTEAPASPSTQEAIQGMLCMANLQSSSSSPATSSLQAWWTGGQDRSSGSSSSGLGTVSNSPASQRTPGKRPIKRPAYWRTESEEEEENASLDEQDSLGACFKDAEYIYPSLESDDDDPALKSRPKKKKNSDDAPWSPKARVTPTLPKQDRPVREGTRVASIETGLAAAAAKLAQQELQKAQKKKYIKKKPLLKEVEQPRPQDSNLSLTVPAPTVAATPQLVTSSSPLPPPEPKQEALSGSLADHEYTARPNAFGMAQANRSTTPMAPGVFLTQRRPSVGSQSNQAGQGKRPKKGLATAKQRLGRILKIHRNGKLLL
UniProt Q8N2A8: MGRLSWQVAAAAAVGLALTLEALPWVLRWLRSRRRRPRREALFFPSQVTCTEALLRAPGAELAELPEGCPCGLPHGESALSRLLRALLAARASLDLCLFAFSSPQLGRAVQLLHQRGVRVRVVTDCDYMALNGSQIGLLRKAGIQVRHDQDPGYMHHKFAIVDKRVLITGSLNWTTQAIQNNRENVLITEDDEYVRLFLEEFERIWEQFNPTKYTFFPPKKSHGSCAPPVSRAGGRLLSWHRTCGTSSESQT
PIGBOS1, A0A0B4J2F0, UniProt A0A0B4J2F0, whole entry, looked up: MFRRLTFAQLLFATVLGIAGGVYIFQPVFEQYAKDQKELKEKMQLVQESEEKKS

[2] = compound: CC1=C(SC2=C1C(=N[C@H](C3=NN=C(N32)C)CC(=O)N)C4=CC=C(C=C4)Cl)C
Outline: as §1

[3] = compound: CC1=C2C(=CC=C1)N=C(N(C2=O)C3=CC=CC=C3C)CN4C=NC5=C(N=CN=C54)N
Outline: as §1

[4] = compound: Cc1sc2c(c1C)C(c1ccc(Cl)cc1)=N[C@@H](CC(=O)OC(C)(C)C)c1nnc(C)n1-2
Outline: as §1

[5] = compound: c1ccc([C@@H]2C[C@H]2NC2CCNCC2)cc1
Outline: as §1

Measured: log2 fold change

PLCH1 (UniProt Q4KWH8)
inactive: [1] -0.018 | [2] 0.099 | [3] -0.069 | [4] -0.009 | [5] 0.089

PI4K2B (UniProt Q8TCG2)
inactive: [1] -0.033 | [2] 0.048 | [3] 0.074 | [4] 0.068 | [5] 0.077

PGGT1B (UniProt P53609)
inactive: [1] -0.055 | [2] 0.021 | [3] -0.013 | [4] -0.004 | [5] 0.064

PIK3R2 (UniProt O00459)
inactive: [1] 0.002 | [2] -0.058 | [3] 0.272 | [4] 0.024 | [5] -0.007

PLCD1 isoform 2 (UniProt P51178)
inactive: [1] 0.021 | [2] -0.031 | [3] -0.001 | [4] 0.008 | [5] 0.016

PHLPP1 (UniProt O60346)
inactive: [1] -0.096 | [2] 0.008 | [3] -0.01 | [4] -0.244 | [5] 0.038

PICALM (UniProt H0YEH1)
inactive: [1] 0.018 | [2] -0.027 | [3] -0.138 | [4] 0.075 | [5] -0.303

PHGDH (UniProt O43175)
inactive: [1] -0.014 | [2] 0.017 | [3] 0.047 | [4] 0.046 | [5] 0.052

PJA2 (UniProt O43164)
inactive: [1] 0.012 | [2] 0.046 | [3] -0.011 | [4] 0.004 | [5] -0.097

PLAUR (UniProt Q03405)
inactive: [4] -0.117 | [5] 0.032

PGK2 (UniProt P07205)
inactive: [3] -0.023 | [5] 0.067

PHGDH, A0A286YFE1
inactive: [1] 0.061 | [2] -0.111 | [4] -0.095

PHF8 (UniProt Q9UPP1)
inactive: [3] 0.044 | [5] -0.347

PIGB (UniProt Q92521)
inactive: [1] 0.105 | [2] -0.029 | [3] 0.119 | [5] -0.001

PLD6 (UniProt Q8N2A8)
inactive: [4] -0.213

Fetched one by one from the entries so far (2):
PIGB (UniProt Q92521)
inactive: [1] 0.105 | [2] -0.029 | [3] 0.119 | [5] -0.001

PLD6 (UniProt Q8N2A8)
inactive: [4] -0.213

Next part:

PIGBOS1, A0A0B4J2F0
inactive: [5] 0.148

From the supplement of paper PMC10849652
